Reference: PubChem BioAssay AID493014 (National Center for Advancing Translational Sciences (NCATS), 2011)
This is one part of the list. The main result of the screen is listed elsewhere. These columns were measured beside it and carry no call. Most of these compounds were active or inconclusive in the main read-out, so they are no random draw. Potencies come from curve fits of mixed quality, noted in brackets.

Experiment: qHTS Assay to Find Inhibitors of Chronic Active B-Cell Receptor Signaling
Settings: ABC-DLBCL IkBa-CBG/CBR reporter, luminescence ratio (green luciferase fused to IkBa over red control in TMD8 lymphoma cells), 4 h
Summary of the method: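 TMD8 human ABC-DLBCL cells with doxycycline-inducible IκBα–green luciferase fusion and unfused red luciferase, in 0.5% FBS medium; compounds up to 46 uM, 4 h at 37C. Green/red luminescence ratio, filter-overlap corrected, fitted to concentration-response curves.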

[1] = measured here: CBR red luminescence, cell number
[2] = measured here: IkBa-CBG green luminescence

COc1cccc(CN(C)C(=O)c2cccc(OCc3ccccc3)c2)c1
AC50 [1]: 35.5 µM [falling, partial curve, poor fit]

CCS(=O)(=O)c1ccc2oc(SCC(=O)Nc3ccc(OC)cc3OC)nc2c1
AC50 [1]: 5.01 µM [rising, partial curve]

CC(=O)c1c(NCCc2ccccc2)nc(=S)n(-c2ccccc2)c1C
AC50 [1]: 31.6 µM [rising, single point]

CCOC(NC(=O)c1ccccc1)C(NC(=O)c1ccccc1)OCC (configuration not stated)
AC50 [1]: 29.1 µM [rising, single point]

CC(OC(=O)CNC(=O)c1ccccc1F)C(=O)Nc1nc(-c2ccccc2)cs1 (configuration not stated)
AC50 [1]: 0.146 µM [rising, full curve, poor fit]

NC(=O)NC(=O)COC(=O)c1ccccc1OCc1ccc(F)cc1
AC50 [1]: 5.62 µM [rising, partial curve, poor fit]

Cc1ccc(/C=N/n2cc(-c3ccccc3)[nH]c2=S)s1
AC50 [1]: 31.6 µM [falling, single point]

Cc1csc(NC(=O)c2ccccc2O)n1
AC50 [1]: 8.91 µM [falling, partial curve]

Cc1c(C(=O)Nc2ccc(F)cc2)oc2ccc(S(=O)(=O)N3CCCC3)cc12
AC50 [1]: 2.59 µM [falling, partial curve, poor fit]

COc1ccccc1OCC(=O)Nc1oc(-c2ccccc2)c(-c2ccccc2)c1C#N
AC50 [1]: 14.6 µM [falling, partial curve, poor fit]

O=[N+]([O-])c1ccc(O)c(/C=N/NC(=S)Nc2ccc(Cl)cc2Cl)c1
AC50 [1]: 0.112 µM [falling, full curve, poor fit]

CCc1cc2c(SCC(=O)Nc3ccc(Cl)cn3)ncnc2s1
AC50 [1]: 1.64 µM [rising, partial curve]

COC(C(=O)Nc1c(F)cccc1F)c1ccccc1 (configuration not stated)
AC50 [1]: 3.55 µM [rising, partial curve, poor fit]

Cc1nnc(SCC(=O)NC(=O)Nc2ccc3c(c2)OCCO3)s1
AC50 [1]: 35.5 µM [falling, single point]

CC(=O)c1ccc(N2CCN(C(=O)c3nn(Cc4ccccc4)c(=O)c4ccccc34)CC2)cc1
AC50 [1]: 3.98 µM [falling, full curve]

Cc1cc(S(=O)(=O)NCC(c2ccccc2)c2ccccc2)ccc1-n1cnnn1
AC50 [1]: 8.2 µM [falling, partial curve, poor fit]

COC(=O)c1[nH]c2ccccc2c1NC(=O)CNC1CCCCC1
AC50 [1]: 16.4 µM [rising, single point]

Clc1cccc(N/N=C/c2ccncc2)c1
AC50 [1]: 1.03 µM [rising, full curve, poor fit]

N=c1n(CCN2CCCCC2)c2ccccc2n1CC(=O)c1cccs1
AC50 [1]: 25.1 µM [falling, single point]

O=c1[nH]c2c(oc3ccccc32)c(=O)n1Cc1ccccc1
AC50 [1]: 1.26 µM [falling, full curve]

C=CCNC(=S)NCc1ccccc1
AC50 [1]: 2.82 µM [falling, single point]

COc1ccc(OC)c(/C=C2\Oc3cc(OCC(=O)N4CCC(C(=O)O)CC4)ccc3C2=O)c1
AC50 [1]: 39.8 µM [rising, partial curve, poor fit]

COc1ccccc1CC(=O)NC1CCN(Cc2ccccc2)CC1
AC50 [1]: 3.98 µM [rising, partial curve]

CC(Nc1c([N+](=O)[O-])c(=O)oc2ccccc12)C(Cl)c1ccccc1 (configuration not stated)
AC50 [1]: 5.62 µM [falling, full curve, poor fit]

CNC[C@H](CC1CCCCC1)NC[C@H](CO)NCC1(c2ccccc2)CC1
AC50 [1]: 7.94 µM [falling, partial curve]

CC(C)(C)NC(=O)NC(=O)COc1ccccc1C#N
AC50 [1]: 29.1 µM [falling, single point]

O=C(Nc1nc2ccc(F)cc2s1)C1=NN(c2ccccc2)C(=O)CC1
AC50 [1]: 25.9 µM [falling, partial curve, poor fit]

N/C(=N\c1nc2ccccc2o1)NC(=O)C(Cc1ccccc1)N1C(=O)c2ccccc2C1=O (configuration not stated)
AC50 [1]: 20 µM [rising, single point]

O=C(N/N=C/C(Cl)=C/c1ccccc1)c1ccncc1
AC50 [1]: 31.6 µM [falling, single point]

Cc1cc(C)c2nc3nc(C)c(C)cc3c(N)c2c1
AC50 [1]: 7.94 µM [falling, partial curve]

O=C(CCCN1C(=O)/C(=C/c2cccs2)SC1=S)Nc1ccccn1
AC50 [1]: 12.6 µM [falling, partial curve]

C1=C[C@@H]2CCN(Cc3ccccc3)Cc3cccc(c32)C1
AC50 [1]: 29.1 µM [rising, single point]

C#CCn1c(=NC(=O)c2ccc(Br)s2)sc2cccc(OC)c21
AC50 [1]: 9.2 µM [falling, partial curve]

Cn1nc(C(F)(F)F)c2cc(C(=O)Nc3ccc(F)cc3)sc21
AC50 [1]: 25.1 µM [falling, single point]

COCCNC(=O)c1ccc(CS(=O)(=O)c2ccc(C)cc2)o1
AC50 [1]: 7.31 µM [rising, partial curve, poor fit]

O=C(NCCCN1CCOCC1)c1ccc2c(=O)n(CCc3ccccc3)c(=O)[nH]c2c1
AC50 [1]: 16.4 µM [rising, single point]

CC1CCc2nc3ccc(S(=O)(=O)N4CCC(C(=O)NC5CCCC5)CC4)cc3c(C(=O)O)c2C1 (configuration not stated)
AC50 [1]: 16.4 µM [falling, single point]

NS(=O)(=O)c1ccc(CNC(=O)c2cc(=O)c3ccccc3o2)cc1
AC50 [1]: 35.5 µM [rising, single point]

CCN(CC)c1ccc(/C=N/NC(=O)c2cc3ccccc3[nH]2)cc1
AC50 [1]: 11.2 µM [falling, partial curve]

CC(=O)N1CCC(N(C(=O)Nc2ccc(F)cc2)C2CCCC2)CC1
AC50 [1]: 1.64 µM [falling, partial curve, poor fit]

Cn1c(SCc2ccc(C#N)cc2Cl)nc2ccccc21
AC50 [1]: 2.82 µM [rising, full curve, poor fit]

C[C@@]12C(=O)N(Cc3ccc(Cl)cc3)CC(=O)N1[C@H]1c3ccccc3OC[C@@H]1[C@@H]2c1ccccc1
AC50 [1]: 16.4 µM [falling, single point] | AC50 [2]: 9.2 µM [rising, partial curve, poor fit]

CSc1ccc(S(=O)(=O)NCC(=O)OCC(=O)N2CCC(C)CC2)cc1[N+](=O)[O-]
AC50 [1]: 20.6 µM [rising, partial curve, poor fit]

C=CCc1ccc(OCc2ccc(C(=O)OC)o2)c(OC)c1
AC50 [1]: 13 µM [falling, partial curve, poor fit]

O=C(NC(=S)NC1CCCc2ccccc21)c1ccc(F)cc1 (configuration not stated)
AC50 [1]: 11.2 µM [rising, partial curve, poor fit]

Brc1ccsc1-c1csc(-c2ccncc2)n1
AC50 [1]: 1 µM [rising, partial curve, poor fit]

O=C(N/N=C/C=C/c1ccco1)c1cccs1
AC50 [1]: 5.01 µM [falling, partial curve]

CC(C)c1ccc(NC(=O)CCNC(=O)Cn2cnc3ccccc3c2=O)cc1
AC50 [1]: 7.08 µM [rising, partial curve]

CC(=O)Nc1cccc(C(=O)Nc2nc(C)cs2)c1
AC50 [1]: 7.94 µM [falling, partial curve, poor fit]

Cc1cccc(NC(=O)NCc2ccc3[nH]c(C)cc3c2)c1
AC50 [1]: 14.1 µM [falling, single point]

O=C(O)c1cc2c(cc1NC(=O)c1c(F)cccc1F)OCCCO2
AC50 [1]: 14.1 µM [falling, partial curve]

Cc1onc(-c2ccccc2)c1C(=O)NC(=S)NNC(=O)c1ccccc1O
AC50 [1]: 29.1 µM [falling, single point] | AC50 [2]: 29.1 µM [falling, single point]

CCC(=O)NC(=S)Nc1ccc(NC(=S)NC(=O)c2ccccc2)cc1
AC50 [1]: 6.31 µM [falling, partial curve]

O=C(O)Cn1c(O)c(C=Nc2ccccc2)sc1=S
AC50 [1]: 6.51 µM [falling, single point]

C=CCC[C@@H](Cc1ccc(F)cc1)C(=O)OC[C@@H](NC(=O)[C@H](CC=C)CC(=O)NCCO)C(C)(C)C
AC50 [1]: 20.6 µM [falling, partial curve]

O=C(Nc1ccc(N2CCOCC2)c(Cl)c1)c1ccc(Cl)cc1
AC50 [1]: 3.98 µM [rising, partial curve, poor fit]

COC(=O)c1ccc(COc2ccc(C)c(C)c2)o1
AC50 [1]: 6.31 µM [rising, single point]

CC1(C)Cc2nc3sc4c(N5CCCC5)nnnc4c3cc2CO1
AC50 [1]: 14.1 µM [rising, single point]

CN1CCN(Cc2cc(COCc3ccccc3)c3cccnc3c2O)CC1
AC50 [1]: 2.82 µM [rising, partial curve, poor fit] | AC50 [2]: 1.41 µM [falling, partial curve, poor fit]

CC1CCN(c2cc(=O)n(C3CCCCC3)c(=O)[nH]2)CC1
AC50 [1]: 0.291 µM [rising, full curve, poor fit]

O=C(NC(=S)NCc1cccnc1)c1ccccc1
AC50 [1]: 23.1 µM [rising, partial curve, poor fit]

O=C(CCN1C(=O)CSc2ccccc21)Nc1cccc(C(F)(F)F)c1
AC50 [1]: 0.92 µM [rising, full curve, poor fit]

CCOc1ccc2ccccc2c1C(=O)N1CCOCC1
AC50 [1]: 13 µM [rising, partial curve]

CC(=O)c1ccc(NC(=O)NC2CCCc3ccccc32)cc1 (configuration not stated)
AC50 [1]: 5.62 µM [falling, partial curve, poor fit]
